Results: PubChem BioAssay AID2685 (National Center for Advancing Translational Sciences (NCATS), 2010)
The list shows a part of the results. Further columns of the screen follow, without active or inactive calls. Most of these compounds were active or inconclusive in the main read-out, so they are no random draw. Words in brackets tell the shape of the fitted curve; partial curves, single points and poor fits give uncertain potencies.

Test: qHTS Assay for Lipid Storage Modulators in Drosophila S3 Cells;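 on cell number change: cells counted by Cell Tracker Red CMTPX staining in the red channel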
Settings: BODIPY lipid droplet fluorescence, 18-24 h; for cell number change: measured here: cell count max response, cells fed with added oleic acid
Method in brief: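 Drosophila S3 cells got compounds at several concentrations plus oleic acid (400 uM solution). Laser-scanning cytometry with 488 nm excitation read lipid droplets at 500-530 nm and cells at 575-640 nm. Percent activity was relative to 20 uM Triacsin C.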

[1] = measured here: cell number channel AC50, cells fed with added oleic acid
[2] = measured here: lipid fluorescence (Fed channel) AC50, cells fed with added oleic acid

| SMILES | cell number change | AC50 [1] | AC50 [2] |
| --- | --- | --- | --- |
| Nc1ncnc2c1ncn2C1OC(C(=O)NC2CC2)C(O)C1O (stereo unspecified) | 4.46% | 0.206 µM [falling, full curve, poor fit] | – |
| COc1nc(Nc2cccc([N+](=O)[O-])c2)nc(OC)n1 | 2.96% | – | 0.0651 µM [falling, full curve, poor fit] |
| O=C(Nc1nccs1)c1cc(-c2ccco2)nc2ccccc12 | 20.6% | – | 1.46 µM [rising, full curve] |
| Oc1cccc(Nc2nc(NCC3CCCO3)c3ccccc3n2)c1 (stereo unspecified) | -88.2% | 20.6 µM [falling, single point] | – |
| O=C(O)COc1ccc(NC(=O)c2ccc(NC(=O)c3ccco3)cc2)cc1 | -46.4% | – | – |
| COc1ccc2[nH]c3c(=O)n(Cc4ccc(C(=O)N5CCCCCC5)cc4)c(=S)[nH]c3c2c1 | 15.7% | – | 3.26 µM [rising, single point] |
| NC(CO)C(O)c1ccc([N+](=O)[O-])cc1 (stereo unspecified) | -7.18% | 0.00517 µM [falling, full curve, poor fit] | 0.00461 µM [falling, full curve, poor fit] |
| CCCSc1ccc([C@H]2N[C@@](Cc3ccccc3)(C(=O)OC)[C@H]3C(=O)N(CC)C(=O)[C@@H]23)cc1 | -14.1% | – | 0.58 µM [rising, single point] |
| O=C(NNC(=O)C1CC1c1ccccc1)c1ccccc1F (stereo unspecified) | 15.7% | – | 25.9 µM [rising, partial curve] |
| O=C(Nc1nc(-c2ccc3c(c2)OCCO3)cs1)C1CCCC1 | – | – | 1.64 µM [falling, single point] |
| CC(CNC(=O)Cn1ccc(NC(=O)OCc2ccccc2)nc1=O)c1ccccc1 (stereo unspecified) | -17.7% | – | 20.6 µM [falling, single point] |
| COc1ccc(CCNC(=O)c2cc3c(=O)n(C)c4ccccc4c3n2C)c(OC)c1 | -8.4% | – | 0.206 µM [rising, full curve] |
| COc1ccc(C2(C)NC(=O)N(CC(=O)Nc3ccc(Br)c(C)c3)C2=O)cc1OC (stereo unspecified) | -17.1% | – | – |
| COc1cccc(S(=O)(=O)NC2CCN(C#N)C2)c1 (stereo unspecified) | -2.53% | – | 0.00517 µM [falling, full curve, poor fit] |
| CCC(=O)c1c[nH]c(C(=O)NCC2CCCO2)c1 (stereo unspecified) | -77.1% | 25.9 µM [falling, partial curve] | 0.58 µM [falling, single point] |
| COc1ccc(Nc2cc(C(=O)NCCCN3CCN(C)CC3)c3ccccc3n2)cc1OC | -12.1% | – | – |
| CCN(CC)S(=O)(=O)c1ccc(C(=O)OCC(=O)c2ccc3c(c2)NC(=O)CO3)cc1 | -11.5% | – | 32.6 µM [falling, single point] |
| OC(COc1ccc(OCc2ccccc2)cc1)CN1CCCCC1 (stereo unspecified) | -23.8% | 2.06 µM [falling, full curve, poor fit] | 29.1 µM [falling, single point] |
| COc1cc(-c2nnc3n2N=C(c2ccccc2)CS3)cc(OC)c1OC | -19.2% | – | – |
| COc1cccc(C(=O)NCC(=O)N2CCN(c3ccc(C(F)(F)F)cn3)CC2)c1 | 35.3% | 11.6 µM [rising, single point] | – |

| SMILES | cell number change | AC50 [1] | AC50 [2] |
| --- | --- | --- | --- |
| CN1C2=CC=CC=CC2=[N+](C)C12C([N+](=O)[O-])=CC(=[N+]([O-])[O-])C=C2[N+](=O)[O-] (stereo unspecified) | -9.93% | – | – |
| Cc1cccc(C(=O)N2CCN(c3ccc(C(F)(F)F)cn3)CC2)c1C | 19.1% | 4.61 µM [falling, partial curve, poor fit] | 0.58 µM [falling, single point] |
| O=C1CN(S(=O)(=O)c2ccccc2)CC(=O)N1CCc1ccccc1 | -138% | – | 0.651 µM [falling, single point] |
| C=CCOC(=O)C(=O)/C=C/c1csc2ccccc12 | -42.8% | 18.4 µM [falling, single point] | – |
| O=C(/C=C/c1ccco1)Nc1ccccc1C(=O)O | -16.6% | – | – |
| O=C(CN1CCN(c2ccccn2)CC1)Nc1ccc(Oc2ccccc2)cc1 | 38.2% | 29.1 µM [rising, single point] | – |
| CC(c1ccccc1)n1c(-c2ccc(Cl)cc2)n[nH]c1=S (stereo unspecified) | -34.9% | 14.6 µM [falling, partial curve, poor fit] | – |
| CN1CCN(C(=O)C23CC4CC(CC(C4)C2)C3)CC1 | -54.7% | 18.4 µM [falling, single point] | 18.4 µM [falling, single point] |
| COc1ccc(C=O)cc1COc1ccc(F)cc1F | 17% | – | – |
| O=C(CSc1nc2ccccc2[nH]1)Nc1ccc2[nH]c(=O)[nH]c2c1 | 2.51% | 7.31 µM [falling, partial curve, poor fit] | – |
| NC(=O)c1oc2ccccc2c1NC(=O)c1ccc(F)cc1 | – | 1.46 µM [rising, partial curve] | 0.517 µM [rising, full curve] |
| CC(=O)Nc1ncc(Cc2ccc(Cl)cc2Cl)s1 | -5.14% | 6.51 µM [falling, single point] | – |
| COc1ccc(C2c3ccc(O)cc3Oc3ncn4nc(-c5cccnc5)nc4c32)cc1OC (stereo unspecified) | -32% | 1.46 µM [falling, partial curve] | 1.46 µM [falling, partial curve, poor fit] |
| CCc1ccc(CN2CCC(N3CCC(C(=O)N4CCCC4)CC3)CC2)o1 | 51.8% | 29.1 µM [rising, single point] | – |
| Nc1c(C(=O)Nc2ccc(Cl)cc2)oc2ccccc12 | 36.2% | 3.26 µM [rising, single point] | – |
| CCCc1nc(SCC(=O)NNC(=O)c2ccc(OC)cc2)c2ccccc2n1 | -5.08% | – | 7.31 µM [falling, partial curve, poor fit] |
| Cc1cc(C)cc(NC(=O)CSc2nnc(Cc3cccn3C)n2-c2ccc(F)cc2)c1 | 8.51% | 2.06 µM [rising, partial curve] | – |
| O=C(NC(=S)NCc1cccnc1)c1ccccc1F | 20.6% | 0.184 µM [rising, full curve, poor fit] | – |
| CC(C)(C)c1cnnn1-c1ccc(-c2csc(N)n2)cc1 | 106% | 16.4 µM [rising, partial curve] | 18.4 µM [rising, partial curve] |
| COc1cccc(NC(=O)CCc2nc(-c3ccccc3F)no2)c1 | -24.4% | 3.26 µM [falling, single point] | – |

| SMILES | cell number change | AC50 [1] | AC50 [2] |
| --- | --- | --- | --- |
| NS(=O)(=O)c1ccc(CCNC(=O)COC(=O)C2CCCN2C(=O)c2cccs2)cc1 (stereo unspecified) | 0.606% | – | – |
| C=CCn1c(SCC(=O)Nc2ccc3c(c2)OCCO3)nnc1-c1ccccn1 | 53.6% | 5.17 µM [rising, full curve, poor fit] | 1.64 µM [rising, partial curve] |
| Cc1ccccc1NC(=O)COC(=O)/C=C/c1cccc(C(F)(F)F)c1 | 19.3% | – | 0.00517 µM [rising, full curve, poor fit] |
| CCOC(=O)Cc1csc(NC(=O)Nc2ccc(F)cc2)n1 | 1.47% | 6.51 µM [rising, single point] | 7.31 µM [rising, single point] |
| CC(=O)c1ccc(NC(=O)C2CCC(C)(C(=O)O)C2(C)C)cc1 (stereo unspecified) | -1.15% | – | – |
| Cc1cnc(C(=O)N(CC(C)C)c2c(N)n(CC(C)C)c(=O)[nH]c2=O)cn1 | -14.3% | – | 6.51 µM [rising, single point] |
| C/C(=N\NC(=O)CNc1cccc2ccccc12)c1ccc(Br)s1 | -21.1% | – | 32.6 µM [falling, single point] |
| CCCn1c(N)c(C(=O)CN(C)CC(=O)Nc2ccc(F)cc2)c(=O)[nH]c1=O | -2.76% | – | 0.517 µM [falling, single point] |
| CCOc1ccc(OCC)c(NC(=O)CSc2nc3ccccc3c(=O)n2C)c1 | -24.7% | – | – |
| COc1ccc(-c2csc(NC(=O)C3CCCCN3S(=O)(=O)c3ccccc3)n2)cc1 (stereo unspecified) | -43.8% | 25.9 µM [falling, single point] | 20.6 µM [falling, partial curve] |
| COc1ccc(Cl)cc1NC(=O)Cn1c(C)csc1=O | 8.99% | – | 0.0517 µM [rising, full curve, poor fit] |
| O=C1N(Cc2cccnc2)C[C@@H]2C[C@@H](c3cccc(C(F)(F)F)c3)N3CCC[C@@]123 | -9.66% | – | – |
| Cc1ccc(C)c(OCCSc2nnc(-c3cccnc3)n2N)c1 | 2.37% | 0.92 µM [rising, partial curve, poor fit] | 0.651 µM [rising, partial curve, poor fit] |
| O=C(O)c1ccccc1CSc1nc2ccccc2[nH]1 | 11.7% | – | 1.16 µM [rising, single point] |
| O=c1ccc(=O)n2n1CC(O)C2 | -6.14% | – | 0.461 µM [rising, full curve] |
| Cc1oc(CC(C)C)cc1C(N)=O | -17.2% | – | 23.1 µM [falling, partial curve, poor fit] |
| CC(C)CC(=O)N1CCN(S(=O)(=O)c2ccccc2)CC1 | – | 0.291 µM [rising, full curve, poor fit] | – |
| O=C(COC(=O)c1ccc(Sc2ccccc2)c([N+](=O)[O-])c1)NC1CCCc2ccccc21 (stereo unspecified) | – | 0.58 µM [rising, single point] | – |
| S=C(Nc1ccc(Oc2ccccc2)cc1)Nc1cccnc1 | -3.65% | – | – |
| Cc1ccc(-c2nc(CN(Cc3c(C)nn(C)c3C)C(C)C)c(C)o2)o1 | 13.4% | – | 29.1 µM [rising, single point] |

Looked up by compound from above (three):

| SMILES | cell number change | AC50 [1] | AC50 [2] |
| --- | --- | --- | --- |
| C=CCOC(=O)C(=O)/C=C/c1csc2ccccc12 | -42.8% | 18.4 µM [falling, single point] | – |
| Oc1cccc(Nc2nc(NCC3CCCO3)c3ccccc3n2)c1 (stereo unspecified) | -88.2% | 20.6 µM [falling, single point] | – |
| O=C(CN1CCN(c2ccccn2)CC1)Nc1ccc(Oc2ccccc2)cc1 | 38.2% | 29.1 µM [rising, single point] | – |
